{"source": "patent EP4202440A1", "about": "“PROTEOMICS-BASED STRATIFICATION OF ACUTE MYELOID LEUKAEMIA” (Max-Planck-Gesellschaft zur Förderung der Wissenschaften …, priority 2021, dated 2023)", "key": {"[1]": {"test_system": "AML cell lines", "experiment": "Cell viability assay (MTT dye reduction), Mito-high versus Mito-low AML cell lines", "format": "cell-based, Human", "conditions": "96 h incubation, Mito AML cell lines (n=9) vs non-Mito AML cell lines (n=10), Wilcoxon rank sum test, Figure 6D", "description": "Human AML cell lines including THP-1 (DSMZ no. ACC16; […]), OCI-AML2 (DSMZ No. ACC 99; FAB M4), OCI-AML3 (DSMZ No. ACC 582; FAB M4), Molm13 (DSMZ No. ACC 554; FAB […]), PL-21 (DSMZ No. ACC 536; FAB M3), HL-60 (DSMZ No. ACC 3; FAB M2), MV4-11 (DSMZ No. ACC 102; FAB M5), SIG-M5 (DSMZ No. ACC 468; FAB […]), ML2 (DSMZ No. ACC 15; FAB M4), NB4 (DSMZ No. ACC 207; FAB M3), KG1 (DSMZ No. ACC 14; FAB not indicated), KG-1a (DSMZ No. ACC 421; FAB not indicated), U-937 (DSMZ No. ACC 5, FAB not indicated), Kasumi-1 (DSMZ No. ACC 220, FAB M2), EOL-1 (DSMZ No. ACC 386, FAB not indicated), OCI-AML5 (DSMZ No. ACC 247, FAB M4), UT-7 (DSMZ No. ACC 137, FAB M7), SET-2 (DSMZ No. ACC 608, FAB no indicated), MonoMac6 (DSMZ No. ACC 124; FAB M5) and HEL (DSMZ No. ACC 11; FAB M6) were obtained from DSMZ (Deutsche Sammlung von Mikroorganismen und Zellkulturen GmbH). THP-1, OCI-AML2, OCI-AML3, Molm13, PL-21, HL-60, MV4-11, SIG-M5, ML2, NB4, KG1, KG-1a, U-937, EOL-1, SET-2, MonoMac6 and HEL were cultured in RPMI 1640 (ThermoFisher, Cat. No. 11875093), supplemented with 20% FBS, 4 mM L-glutamine, 100 IU/ml penicillin and […] streptomycin. Kasumi-1 and OCI-AML5 were cultured in Advanced RPMI (ThermoFisher, Cat. No. 12633012) supplemented with 5% FBS, 4 mM L-glutamine, 100 IU/ml penicillin and […] streptomycin. […] IC50 values were determined using the R package \"drc\" v3.0-1 (Ritz et al., 2015). […]"}, "[2]": {"test_system": "AML cell lines", "experiment": "Seahorse analysis: oxygen consumption rate after venetoclax treatment", "format": "cell-based, Human", "conditions": "for Oxygen consumption rate: after 24 h treatment with 2 µM venetoclax"}}, "note": "Entries after “also recorded” stand apart in the source; their conditions may differ. At least one compound was matched to its structure with a doubt left."}
{"smiles": "CC1(C)CCC(CN2CCN(c3ccc(C(=O)NS(=O)(=O)c4ccc(NCC5CCOCC5)c([N+](=O)[O-])c4)c(Oc4cnc5[nH]ccc5c4)c3)CC2)=C(c2ccc(Cl)cc2)C1", "note": "[venetoclax, Venetoclax]", "values": [{"measurement": "half-maximum inhibitory concentration (IC50): in vitro sensitivity of Mito-high and -low cell lines", "setting": "[1]", "result": "significant hypersensitivity"}, {"measurement": "Decrease in oxygen consumption rate, Mito compared to non-Mito cell lines", "setting": "[2]; 24 h venetoclax treatment, p<0.01, Wilcoxon rank sum test", "result": "stronger reduction; also recorded: significantly greater"}, {"measurement": "Oxygen consumption rate", "setting": "[2]; Mito AML cell lines (n=8), p<0.001", "result": "marked decrease"}, {"measurement": "Oxygen consumption rate", "setting": "[2]; non-Mito cell lines (n=8), p = 0.13", "result": "no significant decrease"}]}
